Results: the supplement of paper PMC5662767
Structures can show the parent of a compound that is named as a salt. Some of the results follow. Plates or batches differ in their baseline, so values are only roughly comparable.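 The clonal Drosophila S2 line carries Smoothened with a circularly permuted GFP inserted in its cytoplasmic tail, which fluoresces once Hh-driven phosphorylation opens an inhibitory loop. Per-cell fluorescence was read by flow cytometry, scaled to Hh-stimulated untreated cells. Hits were groups of inhibitors sharing pathway targets that shifted fluorescence consistently, not single compounds.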

What follows are compounds tested on Drosophila S2 cl14 SmoIP sensor cells (assay: normalized SmoIP GFP fluorescence (untreated unstimulated = 0%, untreated Hh-stimulated = 100%); higher = more Smo activation sensor fluorescence). Conditions: stimulation: Hh conditioned medium (+Hh); compound concentration: 15 uM; 24 h.

Structure (SMILES) | normalized SmoIP GFP fluorescence [%]
CC(C)C[C@H](NC(=O)CNC(=O)c1cc(Cl)ccc1Cl)B1OC(=O)C(CC(=O)O)(CC(=O)O)O1 | 104
O=C(c1cncc(Br)c1)N1CCC(N2CCCC2)CC1 | 159
CCn1c2ccccc2c2cc(Nc3ccnc(NCCCN4CCOCC4)n3)ccc21 [ehop-016] | 112
CN1CCC(=C2c3ccccc3CC(=O)c3sccc32)CC1 [ketotifen-fumarate-zaditor] | 147
OCc1ccc(-c2ccc(-c3ccc(CO)s3)o2)s1 | 126
Cc1ccccc1C(=O)Nc1ccc(C(=O)N2CCCC(N(C)C)c3ccccc32)cc1 (configuration not stated) [mozavaptan] | 118
C[C@H](NC(=O)[C@@H](O)c1cc(F)cc(F)c1)C(=O)N[C@@H]1C(=O)N(C)c2ccccc2-c2ccccc21 | 116
O=C(Nc1c(Cl)cncc1Cl)c1ccc(OC(F)F)c(OCC2CC2)c1 [Roflumilast(Daxas)] | 140
C=C(C)[C@@H]1CC[C@]2(C(=O)O)CC[C@]3(C)[C@H](CC[C@@H]4[C@@]5(C)CC[C@H](O)C(C)(C)[C@@H]5CC[C@]43C)[C@@H]12 [betulinic-acid] | 128
O=c1cc(N2CCOCC2)oc2c(-c3ccccc3)cccc12 | 170
Nc1nc(=O)n([C@@H]2CS[C@H](CO)O2)cc1F [Emtricitabine] | 128
CC1(C)CCC2=C(O1)c1ccccc1C(=O)C2=O [beta-lapachone] | 239
O=C(C=Cc1ccccc1)NC(NC(=S)Nc1ccc(Cl)cc1)C(Cl)(Cl)Cl (configuration not stated) | 130
CC/C(=C(\c1ccccc1)c1ccc(OCCN(C)C)cc1)c1ccccc1 [Tamoxifen-Citrate(Nolvadex)] | 148
CCCC(CCC)C(=O)O [Sodium-valproate] | 127
C[N+]1(C)CCC(=C(c2ccccc2)c2ccccc2)CC1 [diphemanil-methylsulfate] | 114
CCc1c(O)cc(O)c(C(=O)c2ccc(OCCN3CCOCC3)c(OC)c2)c1CC(=O)N(CCOC)CCOC | 203
CCCCc1oc2ccccc2c1C(=O)c1cc(I)c(OCCN(CC)CC)c(I)c1 [amiodarone-hcl] | 223
CN(C)CCN(Cc1ccccc1)c1ccccn1 [tripelennamine-hydrochloride] | 124

Structure (SMILES) | normalized SmoIP GFP fluorescence [%]
Cc1c(Nc2ncccc2C(=O)O)cccc1C(F)(F)F [flunixin-meglumin] | 91.8
CCC(C)(Oc1ccc(C2(c3ccc(OC(C)(CC)C(=O)O)cc3)CCCCC2)cc1)C(=O)O (configuration not stated) [clinofibrate] | 134
Cn1cc(-c2ccc3nnc(C(F)(F)c4ccc5ncccc5c4)n3n2)cn1 | 134
CC(C)C[C@H](NC(=O)[C@H]1O[C@@H]1C(=O)O)C(=O)NCCCCN=C(N)N | 224
Cc1cc(C)c2c(c1)[C@@H](N(Cc1cc(C(F)(F)F)cc(C(F)(F)F)c1)c1nnn(C)n1)CCCN2CC1CCC(C(=O)O)CC1 (some centres not stated) | 119
CC(C)n1nc(-c2ccc3oc(N)nc3c2)c2c(N)ncnc21 | 136
NC(=O)c1ncn([C@@H]2O[C@H](CO)[C@@H](O)[C@H]2O)c1N [Acadesine] | 113
Cc1cc(OCc2nnc(SC3CCCC3)n2-c2cccnc2)ccc1-c1ccc(S(C)(=O)=O)cc1 | 146
CN(C)CCC=C1c2ccccc2CCc2ccccc21 [amitriptyline-hydrochloride] | 142
Cc1ccc(C(=O)c2cc(O)c(O)c([N+](=O)[O-])c2)cc1 [tolcapone] | 154
CC(C)c1cc(-c2ccc(F)c3ccccc23)nc(N)n1 | 108
CCOC(=O)[C@H](CCc1ccccc1)N[C@@H](C)C(=O)N1[C@@H](C(=O)O)C[C@@H]2CCC[C@@H]21 [Ramipril(Altace)] | 123
C=C1C(=O)O[C@@H]2/C=C(\C)CC/C=C(\C)CC[C@@H]12 [Costunolide] | 82.6
C/C=C1\[C@H]2C=C(C)C[C@]1(N)c1ccc(=O)[nH]c1C2 [(-)-Huperzine-A] | 124
COc1c(C)c(C(=O)c2ccc(N)c(C(=O)O)c2)n2ccccc12 | 109
Cc1cc2c(F)c(Oc3ncnn4cc(OC[C@@H](C)OC(=O)[C@H](C)N)c(C)c34)ccc2[nH]1 [Brivanib-alaninate] | 158
N#Cc1c(Oc2ccc(F)c(NC(=O)Cc3cccc(C(F)(F)F)c3)c2)ccc2nc(NC(=O)C3CC3)sc12 | 274
CCOC(=O)c1ncn2c1CN(C)C(=O)c1cc(F)ccc1-2 [Flumazenil] | 133

3 compounds drawn at random from the list so far:
Structure (SMILES) | normalized SmoIP GFP fluorescence [%]
CC(C)C[C@H](NC(=O)[C@H]1O[C@@H]1C(=O)O)C(=O)NCCCCN=C(N)N | 224
CCOC(=O)[C@H](CCc1ccccc1)N[C@@H](C)C(=O)N1[C@@H](C(=O)O)C[C@@H]2CCC[C@@H]21 [Ramipril(Altace)] | 123
C/C=C1\[C@H]2C=C(C)C[C@]1(N)c1ccc(=O)[nH]c1C2 [(-)-Huperzine-A] | 124
